According to US20170306017A1:
These are yes or no findings as the source states them, for the method shown. Some binding calls cover weakened binding; strength is not graded here. Where a sequence is shown, tags or fusion partners need not be part of it.

Chains of the proteins cited; added tags and fusions are not shown. Residues count along the entry.
UniProt O43157, residues 20-2135: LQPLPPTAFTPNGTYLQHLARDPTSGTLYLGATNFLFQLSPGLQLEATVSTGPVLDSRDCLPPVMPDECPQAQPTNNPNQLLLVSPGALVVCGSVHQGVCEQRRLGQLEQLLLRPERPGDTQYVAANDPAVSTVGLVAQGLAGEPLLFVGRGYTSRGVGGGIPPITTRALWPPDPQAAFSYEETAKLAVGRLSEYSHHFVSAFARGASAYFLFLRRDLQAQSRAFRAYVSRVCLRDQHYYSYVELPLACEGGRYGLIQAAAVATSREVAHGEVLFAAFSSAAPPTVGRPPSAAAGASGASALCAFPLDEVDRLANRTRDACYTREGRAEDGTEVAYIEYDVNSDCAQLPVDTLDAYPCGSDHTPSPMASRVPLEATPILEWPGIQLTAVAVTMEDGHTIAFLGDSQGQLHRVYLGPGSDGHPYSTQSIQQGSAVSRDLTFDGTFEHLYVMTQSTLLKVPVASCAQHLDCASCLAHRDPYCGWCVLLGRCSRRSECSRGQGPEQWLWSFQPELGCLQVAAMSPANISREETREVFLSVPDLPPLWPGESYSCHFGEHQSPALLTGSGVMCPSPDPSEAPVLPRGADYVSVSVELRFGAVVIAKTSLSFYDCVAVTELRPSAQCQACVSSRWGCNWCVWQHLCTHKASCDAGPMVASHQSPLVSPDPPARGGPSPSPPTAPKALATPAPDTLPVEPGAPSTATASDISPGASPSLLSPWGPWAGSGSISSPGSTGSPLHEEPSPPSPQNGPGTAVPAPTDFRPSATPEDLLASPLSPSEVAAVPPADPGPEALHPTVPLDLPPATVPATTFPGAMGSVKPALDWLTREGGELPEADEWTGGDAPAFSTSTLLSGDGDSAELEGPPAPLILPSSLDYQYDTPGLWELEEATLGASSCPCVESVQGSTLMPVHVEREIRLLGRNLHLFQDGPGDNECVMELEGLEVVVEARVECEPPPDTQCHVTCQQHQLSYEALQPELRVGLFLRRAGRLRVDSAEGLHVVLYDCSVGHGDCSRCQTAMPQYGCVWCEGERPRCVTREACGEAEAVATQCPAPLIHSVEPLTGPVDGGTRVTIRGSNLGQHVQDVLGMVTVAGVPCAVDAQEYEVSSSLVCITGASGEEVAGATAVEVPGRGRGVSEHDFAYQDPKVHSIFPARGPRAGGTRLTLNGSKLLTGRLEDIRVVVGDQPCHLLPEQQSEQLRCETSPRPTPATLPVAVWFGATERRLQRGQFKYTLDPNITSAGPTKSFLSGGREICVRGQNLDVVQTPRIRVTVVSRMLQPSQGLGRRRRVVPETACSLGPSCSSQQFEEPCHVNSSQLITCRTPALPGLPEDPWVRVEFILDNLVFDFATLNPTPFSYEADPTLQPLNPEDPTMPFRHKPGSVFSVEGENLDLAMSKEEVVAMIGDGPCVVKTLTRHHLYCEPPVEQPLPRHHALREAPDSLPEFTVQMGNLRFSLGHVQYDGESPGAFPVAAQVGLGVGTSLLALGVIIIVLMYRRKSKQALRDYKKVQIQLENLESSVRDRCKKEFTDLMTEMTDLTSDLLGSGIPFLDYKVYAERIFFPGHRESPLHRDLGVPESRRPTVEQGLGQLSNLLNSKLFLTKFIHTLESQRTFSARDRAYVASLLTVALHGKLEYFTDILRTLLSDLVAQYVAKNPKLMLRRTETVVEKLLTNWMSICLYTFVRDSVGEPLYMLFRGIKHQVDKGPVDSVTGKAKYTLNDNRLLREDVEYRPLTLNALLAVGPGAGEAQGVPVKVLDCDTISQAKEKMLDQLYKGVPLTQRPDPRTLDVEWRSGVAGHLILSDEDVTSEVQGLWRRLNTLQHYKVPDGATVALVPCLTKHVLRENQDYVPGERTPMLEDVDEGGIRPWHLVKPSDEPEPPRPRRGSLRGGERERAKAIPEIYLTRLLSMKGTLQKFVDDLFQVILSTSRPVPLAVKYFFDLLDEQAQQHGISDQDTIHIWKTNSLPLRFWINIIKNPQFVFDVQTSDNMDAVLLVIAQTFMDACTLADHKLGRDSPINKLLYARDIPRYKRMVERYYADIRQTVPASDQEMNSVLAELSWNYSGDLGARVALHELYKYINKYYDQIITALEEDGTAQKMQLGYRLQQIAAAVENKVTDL

Assays:
[1] = biological target: Plexin B1 on the cell surface of a stable 293 cell line (293/Plexin) (UniProt O43157); assay: flow cytometry on 293/Plexin cells; bound CD100-His detected with biotinylated rabbit anti-His and streptavidin-APC
[2] = biological target: Plexin B1 on the cell surface of a stable 293 cell line (293/Plexin) (UniProt O43157); assay: flow cytometry on 293/Plexin cells (blocking assay of FIG. 1); bound CD100-His detected with biotinylated anti-His and streptavidin-APC

B1: mouse CD100-His (the extracellular domain of mouse CD100 with a C-terminal 6X his tag) (ligand)
chain: FAPVPRLTWEHGEVGLVQFHKPGIFNYSALLMSEDKDTLYVGAREAVFAVNALNISEKQHEVYWKVSEDKKSKCAEKGKSKQTECLNYIRVLQPLSSTSLYVCGTNAFQPTCDHLNLTSFKFLGKSEDGKGRCPFDPAHSYTSVMVGGELYSGTSYNFLGSEPIISRNSSHSPLRTEYAIPWLNEPSFVFADVIQKSPDGPEGEDDKVYFFFTEVSVEYEFVFKLMIPRVARVCKGDQGGLRTLQKKWTSFLKARLICSKPDSGLVFNILQDVFVLRAPGLKEPVFYAVFTPQLNNVGLSAVCAYTLATVEAVFSRGKYMQSATVEQSHTKWVRYNGPVPTPRPGACIDSEARAANYTSSLNLPDKTLQFVKDHPLMDDSVTPIDNRPKLIKKDVNYTQIVVDRTQALDGTFYDVMFISTDRGALHKAVILTKEVHVIEETQLFRDSEPVLTLLLSSKKGRKFVYAGSNSGVVQAPLAFCEKHGSCEDCVLARDPYCAWSPAIKACVTLHQEEASSRGWIQDMSGDTSSCLDKSKESFNQHFFKHGGTAELKCFQKSNLARVVWKFQNGELKAASPKYGFVGRKHLLIFNLSDGDSGVYQCLSEERVRNKTVSQLLAKHVLEVKMVPRTPPSPTSEDAQTEGSKITSKMPVASTQGSSPPTPALWATSPRAATLPPKSSSGTSCEPKMVINTVPQLHSEKTVYLKSSDNRHHHHHH
Which results are given for B1?
binding [1]: binds; binding [2]: binds
